# PubChem BioAssay AID1259261 | Sanger Institute, 2017
# Purpose: 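Find kinase silencing that cuts viability alone or with anchor drugs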 (primary screen)
# System: HCC2998 human colorectal cancer cells
# Reagents: siRNA pool against human genes
# Challenge: anchor drugs BYL719 1 µM, cetuximab 5 µg/ml or trametinib 10 nM, each compared with DMSO vehicle
# Measured: 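Cell viability relative to non-targeting siRNA, averaged over replicates, with robust z-score for siRNA alone and synergy scores with each anchor drug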
# Direction: viability z-score, knock-down alone: higher = more viable cells than controls; viability fraction, knock-down alone: higher = more viable cells; synergy score with BYL719: higher = stronger combined killing with BYL719; synergy score with trametinib: higher = stronger combined killing with trametinib; synergy score with cetuximab: higher = stronger combined killing with cetuximab
# Active means: 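Essential when the siRNA-alone viability robust z-score is below -3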
# Calls: active = essential; inactive = no change
# Shown is one part, drawn at random, of 794 deposited reagents. Of all reagents, 10 (1.3%) are marked active. 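Calls reflect knock-down alone without drug; synergy scores with BYL719, cetuximab or trametinib do not affect calls.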 Viability is capped at 1. Reagent sequences are not shown. Not given: the amount of reagent, the time to read-out.
Gene,"viability z-score, knock-down alone","viability fraction, knock-down alone",synergy score with BYL719,synergy score with trametinib,synergy score with cetuximab,activity call
EFNA3 (ephrin A3),-0.0589,0.841,0.0247,0.12,0.000896,inactive
ITPKB (inositol-trisphosphate 3-kinase B),0.873,0.958,0.00163,0.00881,0.00831,inactive
CDKN1C (cyclin dependent kinase inhibitor 1C),1.21,1,0.00179,0.0462,-0.0432,inactive
INSR (insulin receptor),0.0137,0.851,-0.159,0.0274,-0.186,inactive
AURKC (aurora kinase C),0.76,0.944,-0.159,-0.00464,-0.0393,inactive
DLG1 (discs large MAGUK scaffold protein 1),0.396,0.899,-0.0182,0.0629,-0.022,inactive
NLK (nemo like kinase),0.736,0.941,-0.0748,0.118,0.00775,inactive
PNCK (pregnancy up-regulated nonubiquitous CaM kinase),0.797,0.949,-0.155,0.00153,-0.0494,inactive
GRK3 (G protein-coupled receptor kinase 3),1.21,1,-0.0377,0.0694,-0.0432,inactive
MOK (MOK protein kinase),0.404,0.9,-0.0432,0.0636,-0.0567,inactive
TNK1 (tyrosine kinase non receptor 1),1.04,0.979,-0.0275,-0.0586,0.00585,inactive
MYLK4 (myosin light chain kinase family member 4),0.647,0.93,0.0702,0.123,0.0156,inactive
PRKAB1 (protein kinase AMP-activated non-catalytic subunit beta 1),0.00185,0.849,-0.0273,-0.0775,-0.0715,inactive
PDGFRA (platelet derived growth factor receptor alpha),1.08,0.984,0.0302,0.0933,-0.0587,inactive
TLK1 (tousled like kinase 1),-0.556,0.779,0.0247,0.168,-0.174,inactive
CHKA (choline kinase alpha),-0.581,0.776,-0.0126,0.0273,0.0696,inactive
"YES1 (YES proto-oncogene 1, Src family tyrosine kinase)",1.21,1,-0.104,0.0349,-0.0432,inactive
PIK3R2 (phosphoinositide-3-kinase regulatory subunit 2),0.971,0.971,-0.135,-0.149,-0.0714,inactive
TTBK1 (tau tubulin kinase 1),-1.26,0.691,-0.0858,0.121,0.0123,inactive
PEAK1 (pseudopodium enriched atypical kinase 1),-0.161,0.829,-0.131,-0.0236,-0.0551,inactive
IPMK (inositol polyphosphate multikinase),0.666,0.932,-0.0979,-0.0536,-0.0287,inactive
AMHR2 (anti-Mullerian hormone receptor type 2),0.266,0.882,-0.131,0.0815,0.0532,inactive
STK16 (serine/threonine kinase 16),0.607,0.925,0.0352,0.184,0.00555,inactive
STK4 (serine/threonine kinase 4),1.07,0.984,0.00318,0.0496,-0.0448,inactive
CAMK2N1 (calcium/calmodulin dependent protein kinase II inhibitor 1),-1.24,0.694,-0.0337,0.0753,0.0353,inactive
CDKL3 (cyclin dependent kinase like 3),0.408,0.9,-0.114,0.0914,0.0492,inactive
DYRK3 (dual specificity tyrosine phosphorylation regulated kinase 3),0.417,0.901,-0.121,0.108,-0.0556,inactive
SBK1 (SH3 domain binding kinase 1),0.181,0.872,-0.111,-0.0904,-0.0975,inactive
"PFKP (phosphofructokinase, platelet)",0.37,0.895,0.142,0.239,0.0227,inactive
NUP62 (nucleoporin 62),-1.38,0.676,-0.0325,0.0871,-0.00111,inactive
PI4K2B (phosphatidylinositol 4-kinase type 2 beta),0.481,0.909,0.0953,0.0737,0.119,inactive
CDK19 (cyclin dependent kinase 19),0.73,0.94,0.0305,0.1,-0.0423,inactive
DDR2 (discoidin domain receptor tyrosine kinase 2),0.168,0.87,0.0191,0.0308,-0.168,inactive
NEK5 (NIMA related kinase 5),1.21,1,-0.0761,-0.166,-0.0422,inactive
CERK (ceramide kinase),-0.361,0.804,-0.0965,0.0729,-0.056,inactive
XYLB (xylulokinase),-0.742,0.756,-0.191,-0.0388,-0.113,inactive
GRK4 (G protein-coupled receptor kinase 4),0.597,0.924,-0.109,-0.0403,-0.116,inactive
SCYL3 (SCY1 like pseudokinase 3),1.21,1,-0.0171,0.0407,-0.0432,inactive
ALPK1 (alpha kinase 1),0.159,0.869,-0.0158,0.136,-0.0903,inactive
"KIT (KIT proto-oncogene, receptor tyrosine kinase)",0.15,0.868,-0.0497,-0.0449,0.0599,inactive
SOX9 (SRY-box transcription factor 9),0.277,0.884,-0.118,0.047,-0.155,inactive
ADK (adenosine kinase),1.1,0.987,-0.0406,0.0077,-0.0535,inactive
SMAD2 (SMAD family member 2),-0.181,0.826,-0.0267,-0.0189,0.0297,inactive
CDKN2C (cyclin dependent kinase inhibitor 2C),0.344,0.892,-0.0768,0.162,0.0266,inactive
BRD4 (bromodomain containing 4),0.644,0.93,-0.0884,-0.0103,-0.0142,inactive
PDGFRL (platelet derived growth factor receptor like),-0.762,0.753,-0.134,-0.103,-0.0612,inactive
CSNK1G2 (casein kinase 1 gamma 2),-0.0738,0.84,0.0253,0.0512,-0.000157,inactive
SRP72 (signal recognition particle 72),0.00285,0.849,-0.1,-0.0776,-0.154,inactive
MKNK2 (MAPK interacting serine/threonine kinase 2),0.161,0.869,0.00477,0.0138,0.000829,inactive
NME1 (NME/NM23 nucleoside diphosphate kinase 1),-2.42,0.545,-0.128,-0.179,-0.0791,inactive
